Measured values reported in publication PMC7298006.
These are yes or no findings as the source states them, for the method shown. Binding seen in cells or lysates may run through a third protein. Some entries that bind do so weakly or less than the wild type.

Amino acid sequences for entries named in this document (tags omitted).
UniProt Q04206: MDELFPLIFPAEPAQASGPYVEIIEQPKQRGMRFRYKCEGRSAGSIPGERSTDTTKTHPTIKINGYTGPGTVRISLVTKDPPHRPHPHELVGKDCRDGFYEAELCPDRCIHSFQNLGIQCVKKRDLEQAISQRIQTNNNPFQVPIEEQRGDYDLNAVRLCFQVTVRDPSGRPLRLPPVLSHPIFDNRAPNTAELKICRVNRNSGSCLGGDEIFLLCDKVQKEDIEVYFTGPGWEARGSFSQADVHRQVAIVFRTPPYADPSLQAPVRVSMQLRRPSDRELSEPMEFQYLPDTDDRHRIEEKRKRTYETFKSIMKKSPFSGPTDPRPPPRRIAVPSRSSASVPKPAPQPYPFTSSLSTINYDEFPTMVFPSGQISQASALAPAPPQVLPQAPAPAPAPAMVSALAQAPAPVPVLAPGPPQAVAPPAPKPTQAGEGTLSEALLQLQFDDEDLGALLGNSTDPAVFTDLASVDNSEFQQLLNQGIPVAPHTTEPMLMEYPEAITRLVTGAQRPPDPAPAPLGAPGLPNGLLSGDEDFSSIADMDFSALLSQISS
UniProt Q92841: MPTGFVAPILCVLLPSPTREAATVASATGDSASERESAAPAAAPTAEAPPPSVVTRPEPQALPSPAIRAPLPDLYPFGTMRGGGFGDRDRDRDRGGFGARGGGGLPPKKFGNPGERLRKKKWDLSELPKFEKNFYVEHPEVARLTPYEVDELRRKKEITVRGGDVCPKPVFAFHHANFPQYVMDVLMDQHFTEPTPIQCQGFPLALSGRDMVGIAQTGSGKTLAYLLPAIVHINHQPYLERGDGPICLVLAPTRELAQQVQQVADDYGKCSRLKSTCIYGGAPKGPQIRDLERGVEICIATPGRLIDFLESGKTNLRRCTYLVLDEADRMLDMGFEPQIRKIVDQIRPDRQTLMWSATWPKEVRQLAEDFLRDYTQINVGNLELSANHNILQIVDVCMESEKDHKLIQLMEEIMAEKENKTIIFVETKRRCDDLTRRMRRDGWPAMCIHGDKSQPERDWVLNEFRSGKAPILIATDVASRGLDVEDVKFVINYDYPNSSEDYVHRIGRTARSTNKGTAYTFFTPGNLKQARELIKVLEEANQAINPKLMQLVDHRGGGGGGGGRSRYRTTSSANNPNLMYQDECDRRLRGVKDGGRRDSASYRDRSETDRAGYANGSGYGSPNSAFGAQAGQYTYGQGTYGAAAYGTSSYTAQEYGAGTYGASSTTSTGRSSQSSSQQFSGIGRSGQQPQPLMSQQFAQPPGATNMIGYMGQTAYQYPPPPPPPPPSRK

What was measured:
[1] = molecular target: RELA (endogenous) (human (endogenous in HEK 293T-LTR-GFP)) (UniProt Q04206); experiment: co-IP; RNA-free IP: cell extracts pre-treated with RNAse A before IP
[2] = molecular target: RELA (endogenous) (human (endogenous in HEK 293T-LTR-GFP)) (UniProt Q04206); experiment: co-IP; 293T-LTR-GFP (HEK) cells transfected with pSG5M-Tax-WT or pSG5M-M22, harvested 48 h after transfection (also M22-expressing cells exposed to TNFα, 10 ng/ml, 24 h); IP lysis buffer 20 mM Tris-HCl pH 7.5, 150 mM NaCl, 2 mM EDTA, 1% NP-40, 10% glycerol; extracts incubated overnight with 5 µg anti-DDX17, anti-Tax or anti-RELA and Dynabeads Protein A/G; immunoblot
[3] = molecular target: Tax of HTLV-1 (wild type) (HTLV-1) (UniProt P03409); experiment: as above
[4] = molecular target: DDX17 (endogenous, isoforms p72 and p82) (human (endogenous in HEK 293T-LTR-GFP)) (UniProt Q92841); experiment: as above

Substance | binding [1] | binding [2] | binding [3] | binding [4]
DDX17 (endogenous, isoforms p72 and p82) (from UniProt Q92841 1-729) | binds | binds | binds | –
RELA (endogenous) (from UniProt Q04206 1-551) | – | – | binds | binds
Tax of HTLV-1 (wild type) (from UniProt P03409 1-353) | – | – | – | binds
